Measured values as given in doi:10.1101/2025.04.14.648677 (bioRxiv, 2025).
Results are given in words; binding and its absence hold for the method and conditions named. Some binding calls cover weakened binding; strength is not graded here. Blank lines part the entries; values can stand above or below the molecule they belong to.

Key:
[1] = target: AGR2 (42-171) Q56W (not stated (human or mouse AGR2 made)) (UniProt O95994); assay: NMR spectroscopy
[2] = target: T1, AGR2 co-expressed with IRE1β_LD (cryo-EM complex, UK3289) (not stated (human or mouse AGR2 made)), O95994; assay: cryo-EM structure; details: remark: other sources report otherwise
T1 chain: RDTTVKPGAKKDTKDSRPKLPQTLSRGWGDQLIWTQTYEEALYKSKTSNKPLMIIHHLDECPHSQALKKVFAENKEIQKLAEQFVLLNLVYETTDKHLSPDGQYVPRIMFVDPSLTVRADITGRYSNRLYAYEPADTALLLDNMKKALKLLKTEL

[3] = target: T2, human AGR2 (residues 21-175), AUC (human), O95994; assay: AUC; details: remark: other sources report otherwise
T2 chain: T1 chain

binding [1]: no binding
Molecule: AGR2 (42-171) Q56W (from UniProt O95994 41-171) (domain or fragment)

binding [2]: binds
B1: AGR2 co-expressed with IRE1β_LD (cryo-EM complex, UK3289), O95994 21-175 (protein)
chain: T1 chain

binding [3]: binds
B2: human AGR2 (residues 21-175), AUC, O95994 21-175 (protein)
chain: T1 chain
